From patent publication US20180086837A1 come the findings set out here.

Substitutions are numbered along the chain they refer to. Results are given in words; binding and its absence hold for the method and conditions named. Binding calls can cover weak binding; strength is not graded here.

Experiment [1] concerns the target human CXCR4 (human). Nature of the experiment: ELISA on coated hCXCR4 lipoparticles versus null lipoparticles, anti-c-myc + anti-mouse-HRP. (An ELISA detects its analyte on a solid surface through an enzyme-linked reagent.)
Experiment [2] has as its target human CXCR4 (human). As to the kind of experiment: ELISA on hCXCR4 viral lipoparticles, anti-c-myc detection.
The target of experiment [3] is human CXCR4 (human). As to the kind of experiment: radio-ligand displacement on membranes of CXCR4-transfected HEK293 cells; competitor: 75 pM [125I]-CXCL12.
Experiment [4] concerns the target human CXCR4 (human). As to the kind of experiment: flow cytometry on Jurkat cells, Nanobody at its EC30, anti-myc detection, displaced by rising AMD3100 (small molecule).
Experiment [5] has as its target human CXCR4 (human). Nature of the experiment: flow cytometry competition on Jurkat cells; competitor: 1 nM anti-CXCR4 mAb 12G5, goat anti-mouse-PE. (In general: In flow cytometry, cells or beads pass a laser one at a time.)
Experiment [6] addresses human CXCR4 (human). As to the kind of experiment: flow cytometry on Jurkat E6.1 cells, dose titration, anti-tag detection.
The target in experiment [7] is human CXCR4 (human). Nature of the experiment: flow cytometry competition on THP-1 cells; competitor: anti-CXCR4 mAb 12G5.
The target of experiment [8] is human CXCR4 (human). Nature of the experiment: flow cytometry competition on Jurkat cells; competitor: anti-CXCR4 mAb 12G5.
Experiment [9] addresses human CXCR4 (human). As to the kind of experiment: displacement of biotinylated SDF-1 from CXCR4 on cells, flow cytometry; IC50 drawn as a bar.
The target of experiment [10] is human CXCR4 (human). Nature of the experiment: flow cytometry on THP-1 cells, dose titration, anti-tag detection.
For experiment [11], the target named is human CXCR4 (human). As to the kind of experiment: flow cytometry on MOLM-13 cells, dose titration, anti-tag detection.
Experiment [12] concerns the target human CXCR4 (human). As to the kind of experiment: competition FACS on Hek-CXCR4 cells; competitor: 30 nM biotinylated SDF-1.
Experiment [13] has as its target human CXCR4 (human). Nature of the experiment: flow cytometry, transfected HEK293T cells.

B1: 281F12-25GS-03F11 (bispecific antibody, not shown: small tags and cut ends)
chain: EVQLVESGGGLVQAGDSLRLSCAASGRAFSRYAMGWFRQAPGKEREFVAAIGWGPSKTNYADSVKGRFTISRDNAKNTVYLQMNTLKPEDTAVYSCAAKFVNTDSTWSRSEMYTYWGQGTQVTVSSGGGGSGGGGSGGGGSGGGGSGGGGSEVQLVESGGGSVQPGGSLTLSCGTSGRTFNVMGWFRQAPGKEREFVAAVRWSSTGIYYTQYADSVKSRFTISRDNAKNTVYLEMNSLKPEDTAVYYCAADTYNSNPARWDGYDFRGQGTQVTVSS
For the molecule B1, the binding result with human CXCR4 (human) [1] and in the experiment with human CXCR4 (human) [2] was “binds” each time.

B2: 03F11-25GS-281F12 (bispecific antibody, not shown: small tags and cut ends)
chain: EVQLVESGGGSVQPGGSLTLSCGTSGRTFNVMGWFRQAPGKEREFVAAVRWSSTGIYYTQYADSVKSRFTISRDNAKNTVYLEMNSLKPEDTAVYYCAADTYNSNPARWDGYDFRGQGTQVTVSSGGGGSGGGGSGGGGSGGGGSGGGGSEVQLVESGGGLVQAGDSLRLSCAASGRAFSRYAMGWFRQAPGKEREFVAAIGWGPSKTNYADSVKGRFTISRDNAKNTVYLQMNTLKPEDTAVYSCAAKFVNTDSTWSRSEMYTYWGQGTQVTVSS
With B2, the binding entry with human CXCR4 (human) [1] and with human CXCR4 (human) [2] was “binds” throughout.

B3: Nanobody 281D4 (VHH)
VHH: EVQLVESGGGLVQAGGSLRLSCAASGGTFNNYAMGWFRRAPGKEREFVAAISRSGVRTGVSALYGDSVKDRFTISRDNAKNTLYLQMNKMKPEDTAVYTCAASAIGSGALRRFEYDSSGQGTQVTVSS
As to B3, the binding entry with human CXCR4 (human) [3] is recorded as “binds”.

B4: Nanobody 281A6 (VHH)
VHH: B3 VHH with A14T
With B4, the binding result in the experiment with human CXCR4 (human) [3] was “binds”.

B5: Nanobody 15G11 (VHH)
VHH: EVQLVESGGGLVQAGDSLRVSCAASGRTSSYAMAWFRQAPGKEREFVGTISRTNSRTKYADFVEGRFTISRDNAKSTLSLQMTSLKPEDTAVYYCAAKWTGNSYHDYTWSKVDEYNVWGQGTQVTVSS
Take B5: the binding entry with human CXCR4 (human) [4] and with human CXCR4 (human) [5] was “binds” throughout.

B6: Nanobody 281F12 (VHH, not shown: small tags and cut ends)
VHH: EVQLVESGGGLVQAGDSLRLSCAASGRAFSRYAMGWFRQAPGKEREFVAAIGWGPSKTNYADSVKGRFTISRDNAKNTVYLQMNTLKPEDTAVYSCAAKFVNTDSTWSRSEMYTYWGQGTQVTVSS
Regarding B6, the binding result with human CXCR4 (human) [6], with human CXCR4 (human) [7], with human CXCR4 (human) [8], with human CXCR4 (human) [4], in the experiment with human CXCR4 (human) [9] and with human CXCR4 (human) [1] was “binds” throughout. Moreover, the binding entry with human CXCR4 (human) [10], with human CXCR4 (human) [11], with human CXCR4 (human) [3] and with human CXCR4 (human) [5] was “binds” throughout.

B7: 281F12-9GS-03F11 (bispecific antibody, not shown: small tags and cut ends)
chain: EVQLVESGGGLVQAGDSLRLSCAASGRAFSRYAMGWFRQAPGKEREFVAAIGWGPSKTNYADSVKGRFTISRDNAKNTVYLQMNTLKPEDTAVYSCAAKFVNTDSTWSRSEMYTYWGQGTQVTVSSGGGSGGGGSEVQLVESGGGSVQPGGSLTLSCGTSGRTFNVMGWFRQAPGKEREFVAAVRWSSTGIYYTQYADSVKSRFTISRDNAKNTVYLEMNSLKPEDTAVYYCAADTYNSNPARWDGYDFRGQGTQVTVSS
Take B7: the binding entry with human CXCR4 (human) [1] and with human CXCR4 (human) [2] was “binds” each time.

B8: Nanobody 10C3 (VHH)
VHH: EVQLVESGGGLVQPGGSLRLSCAASGTIFSTSTMGWYSQAPGKQRELVADITFLGSAKYADSVKGRFTISRDKIKNTVYLQMNSLKPEDTAAYYCNARQSTFRGVHYNYWGQGTQVTVSS
Regarding B8, the binding result with human CXCR4 (human) [9] and in the experiment with human CXCR4 (human) [12] was “binds” in each case.

B9: Nanobody 15A1 (VHH)
VHH: EVQLVESGGGLVQAGGSLRLSCAASGRTFSRAAMGWFRQAPGKEREFVGCALSSAGSALTADSVKGRFTISRDNAKNMVYLQMNNLKPEDTAVYSCVAGGYCTRAGVYPYWGQGTQVTVSS
As to B9, the binding entry in the experiment with human CXCR4 (human) [9] and in the experiment with human CXCR4 (human) [13] was “binds” throughout.
